Oligonucleotides screened, 5′ to 3′:
SAM-II: SAM-II riboswitch RNA pseudoknot, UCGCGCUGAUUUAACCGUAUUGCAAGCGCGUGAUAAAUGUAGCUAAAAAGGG. About 21,000 compounds screened, about 200 hits.
TPP: TPP riboswitch RNA three-way junction, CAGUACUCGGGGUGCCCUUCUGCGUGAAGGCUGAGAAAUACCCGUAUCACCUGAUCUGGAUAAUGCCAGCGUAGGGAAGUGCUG. About 24,000 compounds screened, about 160 hits.
PreQ1: PreQ1 riboswitch RNA pseudoknot, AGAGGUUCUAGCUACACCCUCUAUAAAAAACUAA. From B. subtilis. About 24,000 compounds screened, about 170 hits.

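The test is a small-molecule microarray: each compound is printed twice on a reactive slide, and binding shows as fluorescence of the labelled oligonucleotide after washing. For the PreQ1, TPP and SAM-II riboswitches the laboratory earlier reported (doi:10.1038/s41467-019-09493-3) 1 µM RNA, 2 h, and a rule that included a mean Z-score above 3 (spot signal-to-noise against the whole library), a score well above that on a control array, and duplicate spots agreeing (coefficient of variation under 100). The data file gives only the calls; its cut-offs may differ, and compounds hitting several targets are kept. These are primary screening calls, not affinities; a compound without a hit may have attached poorly or may still bind in solution.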 “hit” means called a hit, “no hit” means screened and not called a hit. This is an unselected part of the compounds tested. A target missing from an entry has no call listed here.

* Cc1cc(Nc2ccccc2)c2ccc(C(F)(F)F)cc2n1 | SAM-II: no hit; TPP: no hit; PreQ1: no hit
* Cc1ccc(-n2ccnc2-c2ccc(C#CCCO)cc2)c(O)c1 | SAM-II: no hit; TPP: no hit; PreQ1: no hit
* CCOC(=O)C1=C(C)OC(N)=C(C#N)C1c1cccnc1 (centres unmarked) | SAM-II: no hit; TPP: no hit; PreQ1: no hit
* COc1cc(C(C)=O)ccc1OCC(O)CN1CCN(S(=O)(=O)N(C)C)CC1 (centres unmarked) | SAM-II: no hit; TPP: no hit; PreQ1: no hit
* Cc1ccc2c(c1)c1c3n2CCN(CC(O)CNC(C)C)C3CCC1 (centres unmarked) | SAM-II: no hit; TPP: no hit; PreQ1: no hit
* COc1ccc(Br)cc1C1C(C#N)=C(N)Oc2cc(C)[nH]c(=O)c21 (centres unmarked) | SAM-II: no hit; TPP: no hit; PreQ1: no hit
* C=CCNc1nc(SC)nc(-c2ccccc2)c1C#N | TPP: no hit; PreQ1: no hit
* CN(CC(=O)N[C@@H]1CC[C@@H](N)C1)Cc1ccncc1 | SAM-II: no hit; TPP: no hit; PreQ1: no hit
* C=CCN1C(=O)C2(C(C(=O)OCc3ccccc3)=C(C)OC(N)=C2C(=O)OCC)c2ccccc21 (centres unmarked) | SAM-II: no hit; TPP: no hit; PreQ1: no hit
* Cc1nc2c(c(NCCc3cnn(-c4ccccc4)c3)n1)CCNCC2 | SAM-II: no hit; TPP: no hit; PreQ1: no hit
* CCN1CCC(N[C@@H]2CC[C@@H]2NC(=O)c2ccnc(-n3cnnc3)c2)CC1 | SAM-II: no hit; TPP: no hit; PreQ1: no hit
* Cc1ccc(-c2nc(S(=O)(=O)c3ccccc3)c(NC3CC3)o2)cc1 | TPP: no hit; PreQ1: no hit
* N#Cc1ccnc(N2CCCC(CO)(CCOc3ccccc3)C2)c1 (centres unmarked) | SAM-II: no hit; TPP: no hit; PreQ1: no hit
* N#CC1=C(N)OC2=C(C(=O)CCC2)C1c1ccccc1OC(=O)N1CCOCC1 (centres unmarked) | SAM-II: no hit; TPP: no hit; PreQ1: no hit
* O=C1c2[nH]nc(-c3ccccc3O)c2C(c2ccc(OCc3ccccc3)cc2)N1CCO (centres unmarked) | TPP: no hit; PreQ1: no hit
* O=c1cc(-c2cccc3c2Sc2ccccc2S3)oc(N2CCOCC2)c1 | SAM-II: no hit; TPP: no hit; PreQ1: no hit
* OCC1CN(Cc2ccoc2)CCC12CCN(Cc1ncc[nH]1)CC2 (centres unmarked) | SAM-II: no hit; TPP: no hit; PreQ1: no hit
* Cc1ccc(C2C=C(c3ccc(F)cc3)Nc3nc(CCCO)nn32)cc1 (centres unmarked) | SAM-II: no hit; TPP: no hit; PreQ1: no hit
* CCCCNc1c(N2CCN(C(=O)OCC)CC2)c(=O)c1=O | TPP: no hit; PreQ1: no hit
* C=C(C)C(=O)Oc1ccc(/N=N/c2ccc(C)cc2)ccc1=O | SAM-II: no hit; TPP: no hit; PreQ1: no hit
* COc1ccc(-c2nc3nc(C)cc(Nc4cccc(OC)c4)n3n2)cc1 | TPP: no hit; PreQ1: no hit
* Cc1ccsc1[C@@H]1CCN(Cc2cc(-c3ccccc3)no2)C[C@H]1O | SAM-II: no hit; TPP: no hit; PreQ1: no hit
* CCCc1ccc(OCC(O)CN2CCC(C)CC2)cc1 (centres unmarked) | SAM-II: no hit; TPP: no hit; PreQ1: no hit
* CCCn1cc(CNC(=O)c2cccc(CC3CCNCC3)c2)cn1 | SAM-II: no hit; TPP: no hit; PreQ1: no hit
* C=CCN1C(=O)C2(C(C#N)=C(N)OC(C)=C2C(=O)OC(C)C)c2ccccc21 (centres unmarked) | SAM-II: no hit; TPP: no hit; PreQ1: no hit
* CCCCNc1cc(=O)n(C)c(=O)[nH]1 | SAM-II: no hit; TPP: no hit; PreQ1: no hit

3 of the entries, repeated:

| Compound | SAM-II | TPP | PreQ1 |
|---|---|---|---|
| `C=C(C)C(=O)Oc1ccc(/N=N/c2ccc(C)cc2)ccc1=O` | no hit | no hit | no hit |
| `Cc1cc(Nc2ccccc2)c2ccc(C(F)(F)F)cc2n1` | no hit | no hit | no hit |
| `CCCCNc1cc(=O)n(C)c(=O)[nH]1` | no hit | no hit | no hit |

Source: the ROBIN nucleic acid binder screens (doi:10.1002/anie.202211358).